# PubChem BioAssay AID493014 (National Center for Advancing Translational Sciences (NCATS), 2011)
# Some of the results follow. These are further read-outs of the screen, such as a control signal, another cell line or another target. No call is given for them. Compounds called inactive in the main read-out are mostly missing here. Words in brackets tell the shape of the fitted curve; partial curves, single points and poor fits give uncertain potencies.
# Assay: qHTS Assay to Find Inhibitors of Chronic Active B-Cell Receptor Signaling
# Conditions: ABC-DLBCL IkBa-CBG/CBR reporter, luminescence ratio (green luciferase fused to IkBa over red control in TMD8 lymphoma cells), 4 h
# Outline: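 TMD8 human ABC-DLBCL cells with doxycycline-inducible IκBα–green luciferase fusion and unfused red luciferase, in 0.5% FBS medium; compounds up to 46 uM, 4 h at 37C. Green/red luminescence ratio, filter-overlap corrected, fitted to concentration-response curves.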
# [1] = measured here: CBR red luminescence, cell number
# [2] = measured here: IkBa-CBG green luminescence
SMILES,AC50 [1],AC50 [2]
Cc1ccc2nc(N3C(=O)CNC3=S)sc2c1,"12.6 µM [falling, single point]",
CCN(C[C@H]1N[C@@](Cc2ccccc2)(C(=O)OC)[C@H]2C(=O)N(Cc3ccccc3)C(=O)[C@@H]12)C(=O)Nc1ccc(C)cc1,"29.1 µM [falling, single point]",
CC(=O)Nc1cccc(NC(=O)c2cccc(OCc3ccccc3)c2)c1,"35.5 µM [falling, single point]",
Cc1ccc(OCCn2cc(Br)c(=O)[nH]c2=O)cc1,"4.47 µM [rising, full curve, poor fit]",
CC(C)C[C@H](NC(=O)c1nc[nH]c1C(=O)NCC(=O)OCc1ccccc1)C(=O)OCc1ccccc1,"7.08 µM [falling, partial curve, poor fit]",
CCOC(=O)C1CCCCN1Cc1cccc(F)c1 (centres undefined),"18.4 µM [falling, single point]",
COCCCNC(=O)c1ccc(-n2nc(C(F)(F)F)cc2-c2cccs2)cc1,"23.1 µM [falling, single point]",
O=C(CC(Cc1ccccc1)C(=O)O)NCCc1ccc2c(c1)OCO2 (centres undefined),"0.366 µM [rising, full curve, poor fit]",
Cc1ccccc1NC(=O)CON=C(N)c1ccccc1,"5.17 µM [falling, partial curve]",
CC(C)(C)c1cc(OC(=O)C2CCCC2)ccc1O,,"20 µM [falling, partial curve, poor fit]"
COC(=O)c1ccccc1NC(=O)c1ccc(-c2ccc(Br)cc2)o1,"0.184 µM [falling, full curve, poor fit]",
CC(=O)c1sc(NC(=O)CCCOc2ccc(Cl)cc2)nc1C,"0.891 µM [rising, full curve, poor fit]",
Cc1cc(C)cc(N2C(=O)C3CCCN3C2=S)c1 (centres undefined),"11.2 µM [rising, partial curve]",
Cc1ccc2nc(-c3sc4nc(C)ccc4c3N)[nH]c2c1,,"0.92 µM [rising, full curve, poor fit]"
Oc1ccc(NCc2ccccc2OCc2ccccc2F)cc1,"6.31 µM [rising, full curve]","17.8 µM [falling, single point]"
CC(=O)Nc1ccc(NC(=O)C/C(C)=N/NC(N)=S)cc1,"14.1 µM [falling, partial curve, poor fit]","25.1 µM [falling, single point]"
O=C(O)c1ccc(-n2c(O)c(C=C3N=c4ccccc4=N3)sc2=S)cc1,"11.2 µM [falling, partial curve, poor fit]",

# Reformatted bar-delimited: two of the compounds above.
SMILES | AC50 [1] | AC50 [2]
COC(=O)c1ccccc1NC(=O)c1ccc(-c2ccc(Br)cc2)o1 | 0.184 µM [falling, full curve, poor fit] | 
Cc1cc(C)cc(N2C(=O)C3CCCN3C2=S)c1 (centres undefined) | 11.2 µM [rising, partial curve] | 
